According to the supplement of paper PMC12067093, “Discovery and optimisation of a covalent ligand for TRIM25 and its application to targeted protein ubiquitination” (Chemical Science, 2025):
The list shows a part of the results.

Compound: CC1Cc2ccccc2N1C(=O)C1CCCN(C1)C(=O)CCl (mixture of isomers) [TRIM25 ligand 11 (diastereomer mixture)]
Assay: probe-labelled cysteine peptide fold change vs DMSO (competition) (log2 fold change); higher = less target engagement (more negative = stronger competition)
Conditions: THP-1, incubation time: 4 h
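Further: competitive chemoproteomic profiling in live THP-1 cells with an iodoacetamide desthiobiotin (IA-DTB) probe, comparing probe-labelled peptide intensities in compound-treated cells against DMSO-treated controls.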

| Target | probe-labelled cysteine peptide fold change (10 µM) | probe-labelled cysteine peptide fold change (50 µM) |
| --- | --- | --- |
| COPG1_Q9Y678_129_ALCQITDSTMLQAIER (UniProt Q9Y678) | -0.0691 | -0.0858 |
| CLUH_O75153_88_TCFSLHLDGNVLDHFSELR (UniProt O75153) | 0.1 | -0.118 |
| COPG1_Q9Y678_230_SPFAYCMMIR (UniProt Q9Y678) | 0.0784 | -0.0231 |
| CMPK2_Q5EBM0_243_AVLDLVDQCPK (UniProt Q5EBM0) | -0.301 | -0.312 |
| CNOT10_Q9H9A5_399_LAECCIAANK (UniProt Q9H9A5) | -0.137 | 0.183 |
| COPS6_Q7L5N1_143_QVCEIIESPLFLK (UniProt Q7L5N1) | 0.303 | 0.269 |
| COQ3_Q9NZJ6_155_ILDVGCGGGLLTEPLGR (UniProt Q9NZJ6) | -0.269 | -0.3 |
| CNN3_Q15417_59_DGIILCELINK (UniProt Q15417) | -0.09 | 0.126 |
| COLEC10_Q9Y6Z7_121_AGTVCDCGR (UniProt Q9Y6Z7) | 0.453 | 0.313 |
| CMSS1_Q9BQ75_55_ECFLIQPK (UniProt Q9BQ75) | 0.12 | 0.0916 |
| COG4_Q9H9E3_554_MSFLVTLNNVEVCSENISTLK (UniProt Q9H9E3) | 0.146 | -0.0856 |
| COQ8A_Q8NI60_406_RELALECDYQR (UniProt Q8NI60) | 0.197 | -0.0307 |
| CMTM3_Q96MX0_38_AFLCSLK (UniProt Q96MX0) | -0.0172 | -0.177 |
| COMMD9_Q9P000_160_IQEDPSLCGDK (UniProt Q9P000) | -0.179 | 0.17 |
| CNOT1_A5YKK6_1687_YRECHLLVLK (UniProt A5YKK6) | 0.0353 | 0.129 |
| COPA_P53621_522_LDALCNIHENIR (UniProt P53621) | 0.0545 | 0.0751 |
| CNPY3_Q9BT09_206_DTSCLAEQWSGK (UniProt Q9BT09) | -0.123 | 0.0385 |
| COPA_P53621_1148_KILSACEK (UniProt P53621) | -0.616 | -0.459 |
| CMPK2_Q5EBM0_40_FVLELPDCTLAHFALGADAPGDADAPDPR (UniProt Q5EBM0) | 0.0258 | -0.0726 |
| COPS4_Q9BT78_232_HALHCTILASAGQQR (UniProt Q9BT78) | 0.0512 | 0.0666 |

Full records from above.
CMTM3_Q96MX0_38_AFLCSLK (UniProt Q96MX0) as listed: probe-labelled cysteine peptide fold change (10 µM) = -0.0172; probe-labelled cysteine peptide fold change (50 µM) = -0.177
COPA_P53621_1148_KILSACEK (UniProt P53621) as listed: probe-labelled cysteine peptide fold change (10 µM) = -0.616; probe-labelled cysteine peptide fold change (50 µM) = -0.459

Continuation.

| Target | probe-labelled cysteine peptide fold change (10 µM) | probe-labelled cysteine peptide fold change (50 µM) |
| --- | --- | --- |
| COG3_Q96JB2_363_DHCALVR (UniProt Q96JB2) | -0.0125 | -0.0954 |
| CNOT7_Q9UIV1_148_KHEEEGIETQYFAELLMTSGVVLCEGVK (UniProt Q9UIV1) | 0.163 | 0.124 |
| COLGALT1_Q8NBJ5_203_AAYSNFWCGMTSQGYYK (UniProt Q8NBJ5) | -0.0487 | -0.107 |
| COPA_P53621_514_HAIVICNR (UniProt P53621) | 0.0717 | 0.214 |
| COPG2_Q9UBF2_88_MCYLTIK (UniProt Q9UBF2) | -0.00142 | -0.0267 |
| COA5_Q86WW8_24_EDLGACLLQSDCVVQEGK (UniProt Q86WW8) | -0.149 | 0.00124 |
| COPB2_P35606_681+689_CQFGLAQECLHHAQDYGGLLLLATASGNANMVNK (UniProt P35606) | 0.0207 | -0.194 |
| COPB2_P35606_190_GVNCIDYYSGGDKPYLISGADDR (UniProt P35606) | 0.0932 | -0.0883 |
| COPB2_P35606_681_CQFGLAQECLHHAQDYGGLLLLATASGNANMVNK (UniProt P35606) | 0.0552 | 0.106 |
| CNBP_P62633_101_EQCCYNCGKPGHLAR (UniProt P62633) | -0.257 | -0.15 |
| COPG2_Q9UBF2_446_EAGLAHLCEFIEDCEHTVLATK (UniProt Q9UBF2) | 0.0149 | 0.000499 |
| COG2_Q14746_563_NFSSISAALEDSQSSFSACVPSLSSK (UniProt Q14746) | -0.184 | -0.18 |
| COG7_P83436_505_YLSDSCSPR (UniProt P83436) | -0.0515 | 0.016 |
| CNOT10_Q9H9A5_665_CLHQAASMIHPK (UniProt Q9H9A5) | -0.0712 | -0.0399 |
| CNTN1_Q12860_158_GMVLLCDPPYHFPDDLSYR (UniProt Q12860) | 0.255 | 0.299 |
| COL15A1_P39059_965_GAIFPIPVRPHCK (UniProt P39059) | 0.017 | 0.0574 |
| CMAS_Q8NFW8_380_EVAYLGNEVSDEECLKR (UniProt Q8NFW8) | -0.0408 | -0.052 |
| COPA_P53621_1169_NPTDAYQLNYDMHNPFDICAASYR (UniProt P53621) | -0.114 | 0.101 |
| CNBP_P62633_161_CGESGHLAR (UniProt P62633) | 0.218 | 0.0528 |
